This is an account of results in the supplement of paper PMC11732987, “Enantioselective OTUD7B fragment discovery through chemoproteomics screening and high-throughput optimisation” (Communications Chemistry, 2025).

By UniProt entry, the sequences of proteins in these tests, tags left out. Where a name states a change or a piece, a line headed by the entry shows the natural chain unless it says otherwise. Residues count along the entry.
UniProt P38398, whole entry, looked up: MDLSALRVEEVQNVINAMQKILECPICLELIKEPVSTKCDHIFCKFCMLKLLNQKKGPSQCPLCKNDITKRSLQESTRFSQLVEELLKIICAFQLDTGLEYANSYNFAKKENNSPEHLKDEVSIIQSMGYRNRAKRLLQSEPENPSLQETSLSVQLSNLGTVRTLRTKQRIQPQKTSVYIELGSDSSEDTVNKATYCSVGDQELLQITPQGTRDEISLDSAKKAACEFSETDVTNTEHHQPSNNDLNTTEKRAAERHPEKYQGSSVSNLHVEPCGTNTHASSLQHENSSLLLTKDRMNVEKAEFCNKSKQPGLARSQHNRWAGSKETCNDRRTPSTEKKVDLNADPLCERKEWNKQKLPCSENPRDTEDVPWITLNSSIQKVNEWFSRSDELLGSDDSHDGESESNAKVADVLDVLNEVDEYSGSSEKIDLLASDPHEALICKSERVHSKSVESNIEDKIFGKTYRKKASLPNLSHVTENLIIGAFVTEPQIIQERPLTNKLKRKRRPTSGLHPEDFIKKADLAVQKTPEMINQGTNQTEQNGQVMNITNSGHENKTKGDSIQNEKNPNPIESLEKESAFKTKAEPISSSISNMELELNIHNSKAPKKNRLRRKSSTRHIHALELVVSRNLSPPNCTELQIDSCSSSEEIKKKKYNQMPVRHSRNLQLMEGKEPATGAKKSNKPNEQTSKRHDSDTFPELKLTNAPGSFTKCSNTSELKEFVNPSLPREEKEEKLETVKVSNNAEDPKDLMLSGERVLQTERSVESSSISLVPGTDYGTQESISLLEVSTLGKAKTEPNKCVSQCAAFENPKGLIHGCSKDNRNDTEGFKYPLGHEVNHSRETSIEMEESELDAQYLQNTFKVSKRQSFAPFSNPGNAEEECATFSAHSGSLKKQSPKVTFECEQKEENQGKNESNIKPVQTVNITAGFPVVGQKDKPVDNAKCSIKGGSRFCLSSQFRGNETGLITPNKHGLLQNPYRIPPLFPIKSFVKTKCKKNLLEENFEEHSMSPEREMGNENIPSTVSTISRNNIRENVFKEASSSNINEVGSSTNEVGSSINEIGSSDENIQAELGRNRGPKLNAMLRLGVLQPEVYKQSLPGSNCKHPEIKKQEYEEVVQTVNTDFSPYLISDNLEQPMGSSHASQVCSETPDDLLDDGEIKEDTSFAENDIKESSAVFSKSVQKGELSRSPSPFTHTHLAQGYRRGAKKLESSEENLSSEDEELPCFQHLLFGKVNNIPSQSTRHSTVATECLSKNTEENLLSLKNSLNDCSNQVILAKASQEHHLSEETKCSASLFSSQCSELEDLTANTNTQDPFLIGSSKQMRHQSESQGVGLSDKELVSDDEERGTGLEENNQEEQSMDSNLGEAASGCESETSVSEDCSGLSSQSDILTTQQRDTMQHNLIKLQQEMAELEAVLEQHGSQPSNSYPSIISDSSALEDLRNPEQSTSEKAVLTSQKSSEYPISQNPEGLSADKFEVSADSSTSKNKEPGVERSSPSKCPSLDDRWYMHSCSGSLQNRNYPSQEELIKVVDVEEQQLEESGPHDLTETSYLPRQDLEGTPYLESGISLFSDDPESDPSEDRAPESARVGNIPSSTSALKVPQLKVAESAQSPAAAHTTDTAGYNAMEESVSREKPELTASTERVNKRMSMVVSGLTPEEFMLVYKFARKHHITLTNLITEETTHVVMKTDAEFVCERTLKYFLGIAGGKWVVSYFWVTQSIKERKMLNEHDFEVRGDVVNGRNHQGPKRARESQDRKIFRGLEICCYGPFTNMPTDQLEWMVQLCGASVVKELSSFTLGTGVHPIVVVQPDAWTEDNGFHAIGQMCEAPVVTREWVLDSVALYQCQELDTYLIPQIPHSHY
UniProt Q6PJG6: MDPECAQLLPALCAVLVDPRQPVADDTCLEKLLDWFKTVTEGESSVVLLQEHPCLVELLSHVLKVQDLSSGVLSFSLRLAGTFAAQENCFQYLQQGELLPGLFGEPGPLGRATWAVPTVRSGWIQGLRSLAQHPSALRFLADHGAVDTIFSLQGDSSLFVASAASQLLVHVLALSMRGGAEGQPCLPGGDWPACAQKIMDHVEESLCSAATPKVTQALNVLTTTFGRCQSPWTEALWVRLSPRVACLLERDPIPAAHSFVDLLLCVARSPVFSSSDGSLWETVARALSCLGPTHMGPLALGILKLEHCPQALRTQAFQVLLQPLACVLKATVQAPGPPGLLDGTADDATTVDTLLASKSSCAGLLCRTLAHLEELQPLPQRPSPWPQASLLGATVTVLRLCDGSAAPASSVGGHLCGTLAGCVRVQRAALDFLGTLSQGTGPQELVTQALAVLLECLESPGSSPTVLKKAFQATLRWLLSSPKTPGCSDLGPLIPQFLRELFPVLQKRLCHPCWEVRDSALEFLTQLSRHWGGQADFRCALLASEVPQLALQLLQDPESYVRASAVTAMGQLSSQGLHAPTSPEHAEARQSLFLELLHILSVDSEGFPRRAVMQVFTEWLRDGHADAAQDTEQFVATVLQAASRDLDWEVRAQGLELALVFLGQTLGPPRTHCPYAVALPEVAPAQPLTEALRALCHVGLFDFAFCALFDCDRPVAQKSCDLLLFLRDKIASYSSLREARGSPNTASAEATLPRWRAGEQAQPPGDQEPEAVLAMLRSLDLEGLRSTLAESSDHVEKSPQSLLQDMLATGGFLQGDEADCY
UniProt Q8TCD1: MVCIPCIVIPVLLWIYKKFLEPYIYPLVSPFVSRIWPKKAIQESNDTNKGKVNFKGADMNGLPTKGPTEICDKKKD
UniProt O75828: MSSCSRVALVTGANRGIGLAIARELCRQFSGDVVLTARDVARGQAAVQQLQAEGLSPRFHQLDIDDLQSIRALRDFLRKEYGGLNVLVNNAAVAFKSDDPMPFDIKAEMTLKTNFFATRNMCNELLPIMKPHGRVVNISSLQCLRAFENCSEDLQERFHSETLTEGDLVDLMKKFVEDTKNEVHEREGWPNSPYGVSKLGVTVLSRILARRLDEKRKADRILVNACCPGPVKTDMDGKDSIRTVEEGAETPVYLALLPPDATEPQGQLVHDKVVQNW
UniProt Q9NPI1: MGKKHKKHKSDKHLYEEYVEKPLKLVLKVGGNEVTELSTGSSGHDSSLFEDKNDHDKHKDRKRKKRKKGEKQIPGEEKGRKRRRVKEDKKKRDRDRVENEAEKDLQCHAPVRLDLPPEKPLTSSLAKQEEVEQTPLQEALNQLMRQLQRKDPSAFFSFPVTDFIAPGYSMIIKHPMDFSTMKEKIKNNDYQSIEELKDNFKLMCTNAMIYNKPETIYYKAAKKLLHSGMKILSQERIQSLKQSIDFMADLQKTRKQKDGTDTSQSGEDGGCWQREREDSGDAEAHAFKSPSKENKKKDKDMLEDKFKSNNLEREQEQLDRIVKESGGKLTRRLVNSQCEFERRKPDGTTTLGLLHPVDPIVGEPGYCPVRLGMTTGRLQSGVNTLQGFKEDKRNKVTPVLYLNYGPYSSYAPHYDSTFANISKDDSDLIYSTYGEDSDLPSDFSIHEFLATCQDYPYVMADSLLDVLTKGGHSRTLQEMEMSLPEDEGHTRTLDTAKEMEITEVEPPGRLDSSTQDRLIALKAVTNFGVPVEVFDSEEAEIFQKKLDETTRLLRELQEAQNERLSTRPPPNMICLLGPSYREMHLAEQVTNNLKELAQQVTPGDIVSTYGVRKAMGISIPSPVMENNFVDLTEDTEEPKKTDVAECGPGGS
UniProt Q49AR2, 182-204: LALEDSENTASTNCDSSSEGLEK
UniProt Q9HB71: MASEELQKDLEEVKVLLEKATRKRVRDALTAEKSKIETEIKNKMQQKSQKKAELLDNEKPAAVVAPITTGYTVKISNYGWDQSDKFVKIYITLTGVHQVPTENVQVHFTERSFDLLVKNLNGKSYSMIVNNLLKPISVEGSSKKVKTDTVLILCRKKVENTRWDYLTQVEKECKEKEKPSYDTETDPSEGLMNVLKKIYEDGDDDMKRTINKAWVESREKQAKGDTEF
UniProt Q96N11, whole entry, looked up: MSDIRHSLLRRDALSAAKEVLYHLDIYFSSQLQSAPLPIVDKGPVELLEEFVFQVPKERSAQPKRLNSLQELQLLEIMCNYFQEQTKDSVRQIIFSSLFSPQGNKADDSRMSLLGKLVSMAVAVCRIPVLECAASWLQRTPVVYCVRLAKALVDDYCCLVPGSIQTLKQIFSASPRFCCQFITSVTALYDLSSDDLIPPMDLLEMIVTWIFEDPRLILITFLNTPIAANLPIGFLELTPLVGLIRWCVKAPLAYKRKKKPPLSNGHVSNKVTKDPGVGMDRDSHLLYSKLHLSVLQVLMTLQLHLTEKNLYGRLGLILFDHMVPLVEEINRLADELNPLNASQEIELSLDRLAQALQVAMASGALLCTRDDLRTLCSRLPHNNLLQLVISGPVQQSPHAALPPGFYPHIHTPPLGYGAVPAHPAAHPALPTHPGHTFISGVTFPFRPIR
UniProt O60566, whole entry, looked up: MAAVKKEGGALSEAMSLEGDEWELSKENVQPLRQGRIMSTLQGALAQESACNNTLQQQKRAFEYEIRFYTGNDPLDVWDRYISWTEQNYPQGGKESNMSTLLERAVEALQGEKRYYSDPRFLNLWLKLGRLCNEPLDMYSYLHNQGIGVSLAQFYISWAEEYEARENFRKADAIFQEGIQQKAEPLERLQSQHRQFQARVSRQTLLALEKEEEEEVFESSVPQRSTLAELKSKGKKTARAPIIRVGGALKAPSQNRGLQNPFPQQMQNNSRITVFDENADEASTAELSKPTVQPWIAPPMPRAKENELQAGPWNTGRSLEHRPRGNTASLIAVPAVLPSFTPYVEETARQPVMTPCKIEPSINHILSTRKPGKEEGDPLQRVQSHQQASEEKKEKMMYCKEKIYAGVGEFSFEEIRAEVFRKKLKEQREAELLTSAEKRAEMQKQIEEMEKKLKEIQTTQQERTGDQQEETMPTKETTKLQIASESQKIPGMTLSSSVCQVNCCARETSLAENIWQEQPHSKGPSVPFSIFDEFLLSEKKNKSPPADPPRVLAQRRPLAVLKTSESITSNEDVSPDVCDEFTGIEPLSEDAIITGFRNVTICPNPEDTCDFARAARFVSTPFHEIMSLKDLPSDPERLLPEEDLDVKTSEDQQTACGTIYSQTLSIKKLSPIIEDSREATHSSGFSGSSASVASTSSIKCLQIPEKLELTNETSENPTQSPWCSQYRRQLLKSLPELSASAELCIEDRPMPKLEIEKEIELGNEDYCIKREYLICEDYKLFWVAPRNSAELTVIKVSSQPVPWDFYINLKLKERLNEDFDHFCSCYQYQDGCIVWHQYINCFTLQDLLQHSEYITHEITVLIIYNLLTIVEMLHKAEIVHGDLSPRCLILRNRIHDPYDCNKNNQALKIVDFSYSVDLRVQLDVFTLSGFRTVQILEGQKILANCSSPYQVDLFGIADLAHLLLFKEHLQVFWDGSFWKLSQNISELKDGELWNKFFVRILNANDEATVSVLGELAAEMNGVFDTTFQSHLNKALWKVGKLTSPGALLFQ
UniProt Q5PSV4: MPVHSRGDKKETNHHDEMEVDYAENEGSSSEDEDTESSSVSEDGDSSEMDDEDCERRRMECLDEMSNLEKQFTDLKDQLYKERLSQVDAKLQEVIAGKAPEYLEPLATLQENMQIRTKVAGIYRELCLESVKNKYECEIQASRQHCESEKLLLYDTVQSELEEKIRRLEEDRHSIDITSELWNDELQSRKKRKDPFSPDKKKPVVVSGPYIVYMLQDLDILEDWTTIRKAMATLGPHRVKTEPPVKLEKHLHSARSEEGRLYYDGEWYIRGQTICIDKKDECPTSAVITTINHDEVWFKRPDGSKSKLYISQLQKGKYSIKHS

The list shows a part of the results. The data scatter; read single values as rough.

Compound in the first experiment: ClCC(=O)N[C@@H]1CCCc2ccccc12
As to the kind of experiment: log2 mean competition ratio of IA-DTB cysteine labelling (DMSO/compound) (log2 ratio); higher = stronger cysteine engagement by compound. As to conditions: 200 µM; treatment time: 4 h; cell line lysate: HEK293T. The procedure:
(§1)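 IA-DTB competitive cysteine chemoproteomics in HEK293T RIPA lysate. Lysates were treated with compound 29 or 30 at 50 or 200 µM for 4 h, then IA-DTB (500 µM, 1 h), trypsin-digested, NeutrAvidin-enriched and analysed by diaPASEF. Competition ratio = intensity DMSO / intensity compound (n=4 treated, n=64 DMSO); binding: mean log2 CR ≥ 1 and p ≤ 0.05 plus QC filters. Target is the cysteine site.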
C15orf61 C84: the “log2 mean competition ratio” value was 0.16.

On to BRCA1 C1103 (UniProt P38398), for which the “log2 mean competition ratio” value came out at 0.321.

As to CAD C787, the “log2 mean competition ratio” value is -0.136.

For BRAT1 C308 (UniProt Q6PJG6), the “log2 mean competition ratio” value was -0.108.

For C18orf32 C71 (UniProt Q8TCD1), the “log2 mean competition ratio” value stood at 0.132.

As for CBR3 C122 (UniProt O75828), the “log2 mean competition ratio” value was -0.0773.

With BRD7 C107 (UniProt Q9NPI1), the “log2 mean competition ratio” value was found to be 0.197.

As to CALR C163, the “log2 mean competition ratio” value was -0.261.

As to C5orf22 C195 (UniProt Q49AR2), the “log2 mean competition ratio” value is -0.312.

For BRPF1 C570, the “log2 mean competition ratio” value was 0.151.

As to CARHSP1 C112, the “log2 mean competition ratio” value is -0.808.

Take CACYBP C173 (UniProt Q9HB71): the “log2 mean competition ratio” value turned out to be 0.199.

As for C7orf26 C145 (UniProt Q96N11), the “log2 mean competition ratio” value is -0.0286.

BUB1B C775 (UniProt O60566): the “log2 mean competition ratio” value is -0.184.

Compound in the next experiment: ClCC(=O)N[C@H]1CCCc2ccccc12
Described as above. As to conditions: 50 µM; treatment time: 4 h; cell line lysate: HEK293T. As to the method: as §1
In the case of BRCA2 C2117 (UniProt P51587), the “log2 mean competition ratio” value is -0.35.

For BRCA2 C341 (UniProt P51587), the “log2 mean competition ratio” value is -0.222.

Consider BRMS1L C127 (UniProt Q5PSV4), for which the “log2 mean competition ratio” value is -0.0641.

Regarding BRD7 C338 (UniProt Q9NPI1), the “log2 mean competition ratio” value amounted to 0.0448.

Take BRCA1 C1103 (UniProt P38398): the “log2 mean competition ratio” value was -0.196.

For CAD C787, the “log2 mean competition ratio” value was -0.496.

In the case of CBR3 C122 (UniProt O75828), the “log2 mean competition ratio” value was -0.0682.

On to BRD7 C107 (UniProt Q9NPI1), for which the “log2 mean competition ratio” value is -0.321.

Turning to CALR C163, the “log2 mean competition ratio” value was -0.444.

With BRPF1 C570, the “log2 mean competition ratio” value was -0.0535.
